In PMC10933316:
No constants are given. Whether binding was seen depends on the method and setting. Binding seen in cells or lysates may run through a third protein. These calls come from enrichment with a bait or labelling near it, and not all partners need be listed.

The chains behind the UniProt entries cited, without tags or fusion partners.
UniProt Q9D4H8: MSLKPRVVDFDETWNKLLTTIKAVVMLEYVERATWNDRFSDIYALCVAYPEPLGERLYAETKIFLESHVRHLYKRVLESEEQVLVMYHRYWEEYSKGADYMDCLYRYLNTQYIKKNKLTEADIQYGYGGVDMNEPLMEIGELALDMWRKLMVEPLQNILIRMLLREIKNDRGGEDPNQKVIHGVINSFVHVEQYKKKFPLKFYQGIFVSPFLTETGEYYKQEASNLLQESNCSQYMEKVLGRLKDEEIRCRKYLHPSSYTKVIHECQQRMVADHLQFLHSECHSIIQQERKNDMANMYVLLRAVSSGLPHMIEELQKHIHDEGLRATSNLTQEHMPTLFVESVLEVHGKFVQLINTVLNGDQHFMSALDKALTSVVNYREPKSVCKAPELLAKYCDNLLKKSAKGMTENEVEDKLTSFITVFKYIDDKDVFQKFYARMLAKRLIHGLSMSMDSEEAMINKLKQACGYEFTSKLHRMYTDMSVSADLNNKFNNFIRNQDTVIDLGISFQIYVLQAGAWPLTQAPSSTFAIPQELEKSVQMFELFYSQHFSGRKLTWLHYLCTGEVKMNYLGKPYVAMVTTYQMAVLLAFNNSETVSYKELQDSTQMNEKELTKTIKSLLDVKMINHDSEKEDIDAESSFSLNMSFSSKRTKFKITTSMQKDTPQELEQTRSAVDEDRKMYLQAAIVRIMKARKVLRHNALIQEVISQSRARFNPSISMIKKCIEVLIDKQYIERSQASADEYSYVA
UniProt P54276: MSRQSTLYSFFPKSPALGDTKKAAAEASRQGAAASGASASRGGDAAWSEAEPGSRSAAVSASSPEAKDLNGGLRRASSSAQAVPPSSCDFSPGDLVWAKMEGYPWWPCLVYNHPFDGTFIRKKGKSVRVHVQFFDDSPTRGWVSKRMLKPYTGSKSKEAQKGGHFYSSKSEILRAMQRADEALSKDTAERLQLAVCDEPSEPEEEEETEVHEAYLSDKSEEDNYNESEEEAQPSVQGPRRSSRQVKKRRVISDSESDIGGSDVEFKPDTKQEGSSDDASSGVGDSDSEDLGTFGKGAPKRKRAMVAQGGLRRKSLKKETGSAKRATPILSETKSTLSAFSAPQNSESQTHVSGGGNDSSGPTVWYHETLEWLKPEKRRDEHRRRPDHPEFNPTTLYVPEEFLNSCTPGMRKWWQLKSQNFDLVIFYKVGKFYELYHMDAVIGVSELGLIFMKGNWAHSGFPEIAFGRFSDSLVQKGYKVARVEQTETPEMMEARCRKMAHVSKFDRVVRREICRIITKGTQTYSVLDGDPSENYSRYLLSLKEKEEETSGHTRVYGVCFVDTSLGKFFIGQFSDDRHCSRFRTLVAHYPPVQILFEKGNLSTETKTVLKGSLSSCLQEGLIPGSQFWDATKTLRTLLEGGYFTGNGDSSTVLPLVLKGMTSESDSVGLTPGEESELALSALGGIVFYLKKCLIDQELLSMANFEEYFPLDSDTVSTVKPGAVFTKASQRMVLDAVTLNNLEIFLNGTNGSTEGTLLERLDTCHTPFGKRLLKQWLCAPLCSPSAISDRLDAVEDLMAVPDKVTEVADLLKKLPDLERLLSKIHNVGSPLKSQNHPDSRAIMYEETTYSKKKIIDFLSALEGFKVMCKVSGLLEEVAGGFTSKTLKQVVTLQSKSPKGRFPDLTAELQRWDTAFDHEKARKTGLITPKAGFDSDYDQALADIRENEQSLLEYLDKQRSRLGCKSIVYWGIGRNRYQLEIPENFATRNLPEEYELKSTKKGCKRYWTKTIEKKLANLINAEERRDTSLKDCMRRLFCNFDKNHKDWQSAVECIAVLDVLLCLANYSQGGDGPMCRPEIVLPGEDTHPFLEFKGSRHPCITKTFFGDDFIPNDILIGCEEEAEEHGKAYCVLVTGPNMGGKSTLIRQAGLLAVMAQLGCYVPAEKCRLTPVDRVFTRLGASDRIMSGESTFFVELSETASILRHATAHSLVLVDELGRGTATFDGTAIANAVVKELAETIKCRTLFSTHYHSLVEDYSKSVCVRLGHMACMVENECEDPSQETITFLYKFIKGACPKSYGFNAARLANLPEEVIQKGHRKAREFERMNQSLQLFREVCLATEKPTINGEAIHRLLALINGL
UniProt Q6PDQ2: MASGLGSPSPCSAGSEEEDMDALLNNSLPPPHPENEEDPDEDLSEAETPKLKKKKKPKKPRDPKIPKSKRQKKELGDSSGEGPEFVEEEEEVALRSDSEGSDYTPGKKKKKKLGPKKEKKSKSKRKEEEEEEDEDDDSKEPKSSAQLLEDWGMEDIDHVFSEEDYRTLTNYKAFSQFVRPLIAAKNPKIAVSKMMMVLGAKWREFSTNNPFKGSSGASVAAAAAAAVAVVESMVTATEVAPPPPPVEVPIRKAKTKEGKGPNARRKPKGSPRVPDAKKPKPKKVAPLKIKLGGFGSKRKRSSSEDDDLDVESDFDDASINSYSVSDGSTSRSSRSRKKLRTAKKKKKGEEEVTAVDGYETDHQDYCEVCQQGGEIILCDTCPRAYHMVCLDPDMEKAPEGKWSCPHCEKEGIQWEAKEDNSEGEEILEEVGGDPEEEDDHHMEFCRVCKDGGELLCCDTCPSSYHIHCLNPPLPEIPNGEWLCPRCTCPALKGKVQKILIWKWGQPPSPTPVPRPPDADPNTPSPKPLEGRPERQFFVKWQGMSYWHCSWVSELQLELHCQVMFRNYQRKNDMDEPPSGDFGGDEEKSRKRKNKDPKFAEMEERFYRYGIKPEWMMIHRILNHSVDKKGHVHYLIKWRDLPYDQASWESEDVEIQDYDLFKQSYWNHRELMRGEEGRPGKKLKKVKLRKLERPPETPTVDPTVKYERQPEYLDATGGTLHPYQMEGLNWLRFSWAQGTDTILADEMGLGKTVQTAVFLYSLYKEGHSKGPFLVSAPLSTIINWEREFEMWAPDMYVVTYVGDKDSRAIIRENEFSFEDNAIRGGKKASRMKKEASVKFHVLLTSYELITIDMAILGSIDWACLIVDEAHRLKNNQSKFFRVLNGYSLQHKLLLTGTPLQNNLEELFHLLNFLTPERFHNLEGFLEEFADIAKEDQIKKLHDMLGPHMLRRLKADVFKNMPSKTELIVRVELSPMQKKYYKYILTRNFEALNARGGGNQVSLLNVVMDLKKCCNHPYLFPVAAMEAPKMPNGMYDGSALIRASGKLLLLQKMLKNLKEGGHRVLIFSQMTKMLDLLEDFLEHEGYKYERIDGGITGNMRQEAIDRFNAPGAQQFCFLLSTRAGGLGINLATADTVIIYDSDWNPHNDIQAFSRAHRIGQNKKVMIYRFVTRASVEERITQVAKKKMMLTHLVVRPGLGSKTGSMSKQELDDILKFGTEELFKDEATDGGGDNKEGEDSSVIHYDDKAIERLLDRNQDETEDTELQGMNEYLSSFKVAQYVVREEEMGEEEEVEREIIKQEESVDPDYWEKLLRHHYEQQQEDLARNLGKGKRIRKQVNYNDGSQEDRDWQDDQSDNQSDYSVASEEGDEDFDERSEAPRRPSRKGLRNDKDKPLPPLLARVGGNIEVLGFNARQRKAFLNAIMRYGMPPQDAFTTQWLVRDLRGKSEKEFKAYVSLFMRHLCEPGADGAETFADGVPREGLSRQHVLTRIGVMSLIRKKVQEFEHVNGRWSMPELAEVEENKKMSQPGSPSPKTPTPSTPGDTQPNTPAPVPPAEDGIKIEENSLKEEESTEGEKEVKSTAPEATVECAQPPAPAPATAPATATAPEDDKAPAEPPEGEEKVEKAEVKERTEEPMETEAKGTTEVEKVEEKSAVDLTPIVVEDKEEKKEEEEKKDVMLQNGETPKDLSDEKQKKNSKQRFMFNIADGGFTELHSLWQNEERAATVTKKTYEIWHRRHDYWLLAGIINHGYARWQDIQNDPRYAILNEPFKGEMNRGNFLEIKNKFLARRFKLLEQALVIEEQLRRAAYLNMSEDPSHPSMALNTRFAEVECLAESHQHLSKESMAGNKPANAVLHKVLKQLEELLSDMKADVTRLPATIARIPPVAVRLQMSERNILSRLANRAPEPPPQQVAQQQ
UniProt O09106: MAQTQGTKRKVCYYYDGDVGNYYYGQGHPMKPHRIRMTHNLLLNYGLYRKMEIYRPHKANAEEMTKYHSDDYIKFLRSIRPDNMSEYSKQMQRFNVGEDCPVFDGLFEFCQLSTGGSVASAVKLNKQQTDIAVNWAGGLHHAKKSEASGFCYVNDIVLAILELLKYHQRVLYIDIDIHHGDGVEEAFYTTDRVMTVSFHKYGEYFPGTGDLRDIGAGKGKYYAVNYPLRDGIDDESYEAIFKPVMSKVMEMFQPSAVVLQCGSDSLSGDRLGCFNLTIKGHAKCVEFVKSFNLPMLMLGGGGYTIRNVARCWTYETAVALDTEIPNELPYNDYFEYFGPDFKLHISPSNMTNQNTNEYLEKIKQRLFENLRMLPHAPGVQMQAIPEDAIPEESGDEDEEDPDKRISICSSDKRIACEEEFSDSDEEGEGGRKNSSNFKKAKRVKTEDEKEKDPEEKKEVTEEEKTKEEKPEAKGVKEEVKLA
UniProt Q61188: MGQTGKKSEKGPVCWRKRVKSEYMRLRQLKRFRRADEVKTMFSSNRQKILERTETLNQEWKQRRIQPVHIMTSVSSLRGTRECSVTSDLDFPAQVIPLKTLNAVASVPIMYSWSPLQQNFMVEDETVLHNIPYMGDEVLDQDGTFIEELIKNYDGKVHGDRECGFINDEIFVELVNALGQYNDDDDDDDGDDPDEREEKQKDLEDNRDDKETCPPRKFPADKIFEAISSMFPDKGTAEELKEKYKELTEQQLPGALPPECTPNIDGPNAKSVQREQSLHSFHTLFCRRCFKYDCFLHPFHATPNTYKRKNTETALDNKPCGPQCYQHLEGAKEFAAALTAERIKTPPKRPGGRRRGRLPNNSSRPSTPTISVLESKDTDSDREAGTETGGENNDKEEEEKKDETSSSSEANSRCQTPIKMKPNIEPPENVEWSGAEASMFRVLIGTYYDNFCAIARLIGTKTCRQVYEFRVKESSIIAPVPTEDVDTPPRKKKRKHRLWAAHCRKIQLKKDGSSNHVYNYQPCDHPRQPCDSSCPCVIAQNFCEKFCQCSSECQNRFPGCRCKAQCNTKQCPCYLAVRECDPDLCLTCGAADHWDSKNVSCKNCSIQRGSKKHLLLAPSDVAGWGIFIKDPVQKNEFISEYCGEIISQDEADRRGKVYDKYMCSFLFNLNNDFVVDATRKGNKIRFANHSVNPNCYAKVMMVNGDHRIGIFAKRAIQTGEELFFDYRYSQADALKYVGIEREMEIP
UniProt Q9R190: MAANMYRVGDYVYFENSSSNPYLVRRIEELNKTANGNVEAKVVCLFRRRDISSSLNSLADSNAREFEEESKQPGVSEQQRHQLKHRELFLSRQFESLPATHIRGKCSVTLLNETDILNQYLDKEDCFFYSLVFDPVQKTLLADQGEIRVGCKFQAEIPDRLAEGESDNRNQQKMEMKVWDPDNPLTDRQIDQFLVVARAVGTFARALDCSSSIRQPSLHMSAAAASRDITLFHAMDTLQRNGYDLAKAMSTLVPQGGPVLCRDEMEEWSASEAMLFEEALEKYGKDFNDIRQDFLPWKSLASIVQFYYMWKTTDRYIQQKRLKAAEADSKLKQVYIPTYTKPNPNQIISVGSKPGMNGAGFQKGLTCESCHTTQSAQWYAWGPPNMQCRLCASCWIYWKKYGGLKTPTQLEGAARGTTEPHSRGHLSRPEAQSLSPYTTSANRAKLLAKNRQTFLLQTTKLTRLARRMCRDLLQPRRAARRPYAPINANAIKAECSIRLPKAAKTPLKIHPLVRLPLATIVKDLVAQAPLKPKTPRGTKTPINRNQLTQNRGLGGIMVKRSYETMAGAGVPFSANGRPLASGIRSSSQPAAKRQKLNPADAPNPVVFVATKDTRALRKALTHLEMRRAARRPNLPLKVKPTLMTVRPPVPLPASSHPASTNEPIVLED
UniProt Q9WTM5: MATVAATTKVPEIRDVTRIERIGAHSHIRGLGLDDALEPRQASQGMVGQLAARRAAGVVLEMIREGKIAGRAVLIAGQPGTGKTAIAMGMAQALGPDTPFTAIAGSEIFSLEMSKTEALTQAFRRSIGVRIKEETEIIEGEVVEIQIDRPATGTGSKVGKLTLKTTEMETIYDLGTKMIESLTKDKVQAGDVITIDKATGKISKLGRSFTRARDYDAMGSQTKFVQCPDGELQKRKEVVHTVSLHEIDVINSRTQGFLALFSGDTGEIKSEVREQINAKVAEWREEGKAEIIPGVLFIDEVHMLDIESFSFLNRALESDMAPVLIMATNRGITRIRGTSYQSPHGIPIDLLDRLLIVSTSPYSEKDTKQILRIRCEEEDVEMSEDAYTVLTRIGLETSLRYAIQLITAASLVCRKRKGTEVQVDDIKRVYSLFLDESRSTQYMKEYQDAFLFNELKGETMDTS

T1: H/F-PRAMEL7ΔN (ESC line) (mouse) (UniProt Q810Y8)
T1 sequence: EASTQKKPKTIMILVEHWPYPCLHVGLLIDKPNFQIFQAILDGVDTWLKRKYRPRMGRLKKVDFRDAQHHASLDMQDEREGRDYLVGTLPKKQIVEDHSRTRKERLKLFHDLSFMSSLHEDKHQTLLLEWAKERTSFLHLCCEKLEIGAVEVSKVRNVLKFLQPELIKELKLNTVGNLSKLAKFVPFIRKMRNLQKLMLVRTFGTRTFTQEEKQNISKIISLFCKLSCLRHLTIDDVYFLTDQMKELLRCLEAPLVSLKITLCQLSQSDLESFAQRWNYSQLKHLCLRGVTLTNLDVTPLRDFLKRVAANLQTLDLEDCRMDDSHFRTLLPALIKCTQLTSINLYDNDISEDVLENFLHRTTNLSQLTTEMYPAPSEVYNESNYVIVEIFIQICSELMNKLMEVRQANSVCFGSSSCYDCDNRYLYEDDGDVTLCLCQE


Legend:
[1] = molecular target: T1, H/F-PRAMEL7ΔN (ESC line) (mouse); assay: affinity purification with mass spectrometry; HA-IP (anti-HA magnetic beads, overnight, 4 °C) from MNase-treated extracts (150 mM NaCl) of ESC + H/F-PRAMEL7WT, ESC + H/F-PRAMEL7ΔN and parental ESCs; on-bead tryptic digestion, LC-MS/MS; two independent experiments
[2] = molecular target: Cullin2 (CUL2), endogenous in mouse ESCs (mouse (endogenous in ESCs)) (UniProt Q9D4H8); assay: affinity purification with mass spectrometry; CUL2-chromatin-IP: DSP-crosslinked, MNase-digested chromatin of ESC + H/F-PRAMEL7WT against parental ESCs, Cullin2 antibody and Dynabeads protein A, LC-MS/MS; fold changes ≥ 3; two independent experiments

Molecule | binding [1] | binding [2]
RUVBL1 (from UniProt P60122 1-456) | binds | 
DNA methyltransferase 1 (DNMT1) (from UniProt P13864 1-1620) | binds | binds
MSH6 (from UniProt P54276 1-1358) | binds | binds
UBA1 (from UniProt Q02053 1-1058) | binds | binds
TDH (mouse (endogenous in ESCs)) | binds | 
NUMA1 (from UniProt E9Q7G0 1-2094) | binds | binds
CHD4 (from UniProt Q6PDQ2 1-1915) | binds | 
HDAC1 (from UniProt O09106 1-482) | binds | 
CSNK2A1 (from UniProt Q60737 1-391) | binds | 
SIN3A (protein, UniProt Q60520 1-1274) MKRRLDDQESPVYAAQQRRIPGSTEAFSHQHRVLAPAPPVYEAVSETMQSATGIQYSVAPNYQVSAVPQSSGSHGPAIAAVHSSHHHPTAVQPHGGQVVQSHAHPAPPVAPVQGQQQFQRLKVEDALSYLDQVKLQFGSQPQVYNDFLDIMKEFKSQSIDTPGVISRVSQLFKGHPDLIMGFNTFLPPGYKIEVQTNDMVNVTTPGQVHQIPTHGIQPQPQPPPQHPSQPSSQSAPTPAQPAPQPTAAKVSKPSQLQAHTPASQQTPPLPPYASPRSPPVQPHTPVTISLGTAPSLQNNQPVEFNHAINYVNKIKNRFQGQPDIYKAFLEILHTYQKEQRNAKEAGGNYTPALTEQEVYAQVARLFKNQEDLLSEFGQFLPDANSSVLLSKTTAEKVDSVRNDHGGTVKKPQLNNKPQRPSQNGCQIRRHSGTGATPPVKKKPKLMSLKESSMADASKHGVGTESLFFDKVRKALRSAEAYENFLRCLVIFNQEVISRAELVQLVSPFLGKFPELFNWFKNFLGYKESVHLESFPKERATEGIAMEIDYASCKRLGSSYRALPKSYQQPKCTGRTPLCKEVLNDTWVSFPSWSEDSTFVSSKKTQYEEHIYRCEDERFELDVVLETNLATIRVLEAIQKKLSRLSAEEQAKFRLDNTLGGTSEVIHRKALQRIYADKAADIIDGLRKNPSIAVPIVLKRLKMKEEEWREAQRGFNKVWREQNEKYYLKSLDHQGINFKQNDTKVLRSKSLLNEIESIYDERQEQATEENAGVPVGPHLSLAYEDKQILEDAAALIIHHVKRQTGIQKEDKYKIKQIMHHFIPDLLFAQRGDLSDVEEEEEEEMDVDEATGAPKKHNGVGGSPPKSKLLFSNTAAQKLRGMDEVYNLFYVNNNWYIFMRLHQILCLRLLRICSQAERQIEEENREREWEREVLGIKRDKSDSPAIQLRLKEPMDVDVEDYYPAFLDMVRSLLDGNIDSSQYEDSLREMFTIHAYIAFTMDKLIQSIVRQLQHIVSDEVCVQVTDLYLAENNNGATGGQLNSQTSRSLLESAYQRKAEQLMSDENCFKLMFIQSQGQVQLTVELLDTEEENSDDPVEAERWSDYVERYMSSDTTSPELREHLAQKPVFLPRNLRRIRKCQRGREQQEKEGKEGNSKKTMENVESLDKLECRFKLNSYKMVYVIKSEDYMYRRTALLRAHQSHERVSKRLHQRFQAWVDKWTKEHVPREMAAETSKWLMGEGLEGLVPCTTTCDTETLHFVSINKYRVKYGTVFKAP | binds | 
MCM4 (protein, UniProt P49717 1-862) MSSPASTPSRRSSRRGRVTPTQSLRSEESRSSPNRRRRGEDSSTGELLPMPTSPGADLQSPPAQNALFSSPPQMHSLAIPLDFDVSSPLTYGTPSSRVEGTPRSGVRGTPVRQRPDLGSARKGLQVDLQSDGAAAEDIVPSEQSLGQKLVIWGTDVNVATCKENFQRFLQCFTDPLAKEEENVGIDITQPLYMQQLGEINITGEPFLNVNCEHIKSFSKNLYRQLISYPQEVIPTFDMAVNEIFFDRYPDSILEHQIQVRPFNALKTKSMRNLNPEDIDQLITISGMVIRTSQLIPEMQEAFFQCQVCAHTTRVEIDRGRIAEPCSCVHCHTTHSMALIHNRSFFSDKQMIKLQESPEDMPAGQTPHTIVLFAHNDLVDKVQPGDRVNVTGIYRAVPIRVNPRVSNVKSVYKTHIDVIHYRKTDAKRLHGLDEEAEQKLFSEKRVKLLKELSRKPDIYERLASALAPSIYEHEDIKKGILLQLFGGTRKDFSHTGRGKFRAEINILLCGDPGTSKSQLLQYVYNLVPRGQYTSGKGSSAVGLTAYVMKDPETRQLVLQTGALVLSDNGICCIDEFDKMNESTRSVLHEVMEQQTLSIAKAGIICQLNARTSVLAAANPIESQWNPKKTTIENIQLPHTLLSRFDLIFLMLDPQDEAYDRRLAHHLVSLYYQSEEQVEEEFLDMAVLKDYIAYAHSTIMPRLSEEASQALIEAYVNMRKIGSSRGMVSAYPRQLESLIRLAEAHAKVRFSNKVEAIDVEEAKRLHREALKQSATDPRTGIVDISILTTGMSATSRKRKEELAEALRKLILSKGKTPALKYQQLFEDIRGQSDTAITKDMFEEALRALADDDFLTVTGKTVRLL | binds | 

Other lines, results leading:

binding [1] | binding [2] | Molecule
binds |  | EZH2 (from UniProt Q61188 1-746)
binds |  | MTA2 (from UniProt Q9R190 1-668)
binds |  | RUVBL2 (from UniProt Q9WTM5 1-463)
binds |  | JARID2 (protein, UniProt Q62315 1-1234) MSKERPKRNIIQKKYDDSDGIPWSEERVVRKVLYLSLKEFKNAQKRQHGEGLAGSLKAVNGLLGNAQAKALGPASEQSENEKDDASQVSSTSNDVSSSDFEEGPSRKRPRLQAQRKFAQSQPNSPSTTPVKIVEPLLPPPATQISDLSKRKPKTEDFLTFLCLRGSPALPNSMVYFGSSQDEEDVEEEDDETEDVKATTNNASSSCQSTPRKGKTHKHVHNGHVFNGSSRSAREKEPAHKHRSKEATPGKEKHSEPRADSRREQASGAQPTAASAAASSAKGLAANHQPPPSHRSAQDLRKQVSKVNGVTRMSSLGAGTNSAKKIREVRPSPSKTVKYTATVTKGTVTYTKAKRELVKETKPNHHKPSSAVNHTISGKTESSNAKTRKQVLSLGGASKSTGPAASGLKASSRLNPKSCTKEVGGRQLREGLRNSKRRLEEAQQVDKPQSPPKKMKGVAGNAEAPGKKASAASGEKSLLNGHVKKEVPERSLERNRPKRAAAGKNMLGKQAHGKTEGTPCENRSTSQPESSHKPHDPQGKPEKGSGKSGWAAMDEIPVLRPSAKEFHDPLIYIESVRAQVEKYGMCRVIPPPDWRPECKLNDEMRFVTQIQHIHKLGRRWGPNVQRLACIKKHLRSQGITMDELPLIGGCELDLACFFRLINEMGGMQQVTDLKKWNKLADMLRIPKTAQDRLAKLQEAYCQYLLSYDSLSPEEHRRLEKEVLMEKEILEKRKGPLEGHTESDHHKFHSLPRFEPKNGLVHGVTPRNGFRSKLKEVGRAPLKTGRRRLFAQEKEVVKEEEEDKGVLNDFHKCIYKGRSVSLTTFYRTARNIMNMCFSKEPAPAEIEQEYWRLVEEKDCHVAVHCGKVDTNTHGSGFPVGKSEPFSRHGWNLTVLPNNTGSILRHLGAVPGVTIPWLNIGMVFSTSCWSRDQNHLPYIDYLHTGADCIWYCIPAEEENKLEDVVHTLLQGNGTPGLQMLESNVMISPEVLCKKGIKVHRTVQQSGQFVVCFPGSFVSKVCCGYNVSETVHFATTQWTSMGFETAKEMKRRHIAKPFSMEKLLYQIAQAEAKKENGPTLSTISALLDELRDTELRQRRLLFEAGLHSSARYGSHDGNSTVADGKKKPRKWLQLETSERRCQICQHLCYLSMVVQENENVVFCLECALRHVEKQKSCRGLKLMYRYDEEQIISLVNQICGKVSGKHGGIENCLNKPTPKRGPRKRATVDVPPSRLPSS
binds | binds | ALDH2 (protein, UniProt P47738 20-519) SAAATSAVPAPNHQPEVFCNQIFINNEWHDAVSRKTFPTVNPSTGEVICQVAEGNKEDVDKAVKAARAAFQLGSPWRRMDASDRGRLLYRLADLIERDRTYLAALETLDNGKPYVISYLVDLDMVLKCLRYYAGWADKYHGKTIPIDGDFFSYTRHEPVGVCGQIIPWNFPLLMQAWKLGPALATGNVVVMKVAEQTPLTALYVANLIKEAGFPPGVVNIVPGFGPTAGAAIASHEGVDKVAFTGSTEVGHLIQVAAGSSNLKRVTLELGGKSPNIIMSDADMDWAVEQAHFALFFNQGQCCCAGSRTFVQENVYDEFVERSVARAKSRVVGNPFDSRTEQGPQVDETQFKKILGYIKSGQQEGAKLLCGGGAAADRGYFIQPTVFGDVKDGMTIAKEEIFGPVMQILKFKTIEEVVGRANDSKYGLAAAVFTKDLDKANYLSQALQAGTVWINCYDVFGAQSPFGGYKMSGSGRELGEYGLQAYTEVKTVTVKVPQKNS
binds | binds | NOP2 (protein, UniProt Q922K7 1-793) MGRKLDPTKKEKRGPGRKARKQKGAETELVRFLPAAGDENSKRLSSRARKRAAKRRAGSVDVPKPNKSPGIKTLPGELSKGAVQARGKKRPAPIQNSDGDEEEDSGEDDVVTQGDLWGSEDSDEDMVDDYGAASNSEDEEEKLLPIERAALKQKAQDATAGVLWNEEDTDEDEDDDGVSPESHPRKDDKAEGDLQINVEDEEAFVLPPAGETDQDGQAPDLQRVHKRIQDIVGVLRDFGAQREEGRSRAEYLSRLQKDLATYYSYGDFLLSKLMELFPLSELIEFLEANEVPRPITLRTNTLKTRRRDLAQLLINRGVNLDPLGKWSKSGLVVYDSSVPIGATPEYLAGHYMLQGASSMLPVMALAPQEHERILDMCCAPGGKTSYIAQLMKNTGVILANDANADRLKSVVGNLHRLGVTNTIISHYDGRQFPKVVGGFDRVLLDAPCSGTGVISKDPAVKTNKDEKDIQRCAHLQKELLLSAIDSVNAASKTGGYLVYCTCSITVEENEWVVDYALKKRNVRLVPTGLDFGQEGFTRFQARRFHPTLRSTRRFYPHTHNMDGFFIAKFKKFSNSIPQPHAGNSAAATPTEPDLKDQVTPKSENGSQPTKKARGAVKAKQQLLRQPHSKKPFQKLNGIAKGPGLSTEPSVPDAQVSTRPSQSAGNADVNSKRKRSEKLKQRGPKWKPSKEAAVPKPSAPSRVEDSGTPVPTPSEIRAAPRPKDCAPSLGKAKKKQKGKQQLAQQPANGAAPLKEDAVSKGPSAPFVSPHSSTRPPPAKRRKSMTKGNSQPLLS
